Results are given in words; binding and its absence hold for the method and conditions named. In cells and extracts the contact can be indirect. These calls come from enrichment with a bait or labelling near it, and not all partners need be listed.
Target: TAR DNA-binding protein of 43 kD (TDP-43), endogenous (human (endogenous in SH-SY5Y and U2OS)) (UniProt Q13148)
Assay: affinity purification with mass spectrometry; endogenous TDP-43 immunoprecipitated (mouse anti-TDP-43 on protein G Dynabeads) versus normal IgG from SH-SY5Y lysate under non-denaturing conditions (Pierce IP lysis buffer, 4°C, 18 h); LC-MS/MS, MaxQuant label-free; triplicate

Chains of the proteins cited; added tags and fusions are not shown. Residues count along the entry.
UniProt Q13148: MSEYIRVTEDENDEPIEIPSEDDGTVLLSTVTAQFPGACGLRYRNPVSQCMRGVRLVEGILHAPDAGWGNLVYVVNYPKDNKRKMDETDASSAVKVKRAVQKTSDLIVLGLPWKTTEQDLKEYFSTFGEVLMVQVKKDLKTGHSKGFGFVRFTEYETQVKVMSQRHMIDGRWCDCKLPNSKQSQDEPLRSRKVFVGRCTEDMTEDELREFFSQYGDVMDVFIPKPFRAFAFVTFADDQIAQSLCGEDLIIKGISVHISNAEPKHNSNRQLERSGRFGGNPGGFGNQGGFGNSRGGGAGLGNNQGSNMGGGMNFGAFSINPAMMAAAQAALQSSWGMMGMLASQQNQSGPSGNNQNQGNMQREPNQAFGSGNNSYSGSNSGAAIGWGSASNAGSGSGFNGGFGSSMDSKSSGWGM
UniProt Q07021, residues 74-282: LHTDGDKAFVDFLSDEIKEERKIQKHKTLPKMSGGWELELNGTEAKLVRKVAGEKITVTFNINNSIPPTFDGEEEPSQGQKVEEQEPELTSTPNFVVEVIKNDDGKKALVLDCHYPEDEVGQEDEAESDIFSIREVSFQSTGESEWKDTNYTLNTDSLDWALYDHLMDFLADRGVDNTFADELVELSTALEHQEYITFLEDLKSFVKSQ
UniProt P67809: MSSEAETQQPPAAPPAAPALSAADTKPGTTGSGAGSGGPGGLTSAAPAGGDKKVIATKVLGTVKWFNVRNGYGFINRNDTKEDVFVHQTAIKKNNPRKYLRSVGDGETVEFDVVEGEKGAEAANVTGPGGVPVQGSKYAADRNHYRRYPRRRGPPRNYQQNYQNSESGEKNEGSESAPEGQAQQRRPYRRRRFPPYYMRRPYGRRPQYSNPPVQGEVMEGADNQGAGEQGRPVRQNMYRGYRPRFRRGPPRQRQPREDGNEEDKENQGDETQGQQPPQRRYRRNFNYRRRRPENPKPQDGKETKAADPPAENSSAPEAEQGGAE

Row | binding | Substance
1 | binds | C1QBP, endogenous (from UniProt Q07021 74-282)
2 | binds | YBX1, endogenous (from UniProt P67809 1-324)

— article PMC12588883
